{"sequences": {"note": "Chains of the proteins cited; added tags and fusions are not shown.", "UniProt Q92830, whole entry, looked up": "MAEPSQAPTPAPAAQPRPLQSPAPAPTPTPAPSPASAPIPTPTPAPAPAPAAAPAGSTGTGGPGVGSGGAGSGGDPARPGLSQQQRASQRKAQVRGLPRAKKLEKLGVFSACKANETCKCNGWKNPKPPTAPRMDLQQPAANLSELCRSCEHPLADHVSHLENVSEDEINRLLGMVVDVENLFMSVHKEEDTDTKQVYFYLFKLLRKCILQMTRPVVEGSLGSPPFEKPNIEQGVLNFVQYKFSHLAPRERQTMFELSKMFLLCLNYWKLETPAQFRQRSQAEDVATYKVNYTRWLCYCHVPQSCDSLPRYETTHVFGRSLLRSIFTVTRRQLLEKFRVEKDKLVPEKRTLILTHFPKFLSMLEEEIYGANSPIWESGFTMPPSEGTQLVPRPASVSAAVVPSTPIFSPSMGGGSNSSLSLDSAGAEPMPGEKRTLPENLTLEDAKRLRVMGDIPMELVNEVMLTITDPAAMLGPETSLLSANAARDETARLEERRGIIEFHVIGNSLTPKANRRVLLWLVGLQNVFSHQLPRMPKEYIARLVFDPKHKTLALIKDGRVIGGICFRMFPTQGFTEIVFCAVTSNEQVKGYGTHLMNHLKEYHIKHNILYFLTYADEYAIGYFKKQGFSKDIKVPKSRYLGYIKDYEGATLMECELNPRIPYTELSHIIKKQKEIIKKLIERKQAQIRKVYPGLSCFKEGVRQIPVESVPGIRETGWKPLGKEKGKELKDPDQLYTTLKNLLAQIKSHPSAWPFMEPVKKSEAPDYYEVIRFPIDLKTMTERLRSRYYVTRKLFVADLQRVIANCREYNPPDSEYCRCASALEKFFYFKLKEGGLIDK"}, "source": "PubChem BioAssay AID504327", "about": "(National Center for Advancing Translational Sciences (NCATS), 2011)", "note": "Screen size: about 390,000 compounds; about 820 (0.21%) were called active. This list was built around the results that the source calls inconclusive (neither active nor inactive); the mix of calls is not that of the screen. Calls follow the shape of the dose curve; as a rule, active = well fitted inhibition curve with a large enough effect; inconclusive = small, poorly fitted or top-dose-only effect, or another doubt; inactive = no such curve, though single readings can be large or run the other way. Potencies beside an inconclusive call are fits to weak or partial responses and may not hold up. Potency is read from the fitted curve at half-maximal effect."}
{"target": "Histone acetyltransferase KAT2A (Homo sapiens) (UniProt Q92830)", "test": "qHTS Assay for Inhibitors of GCN5L2", "settings": "GCN5L2 HAT assay, ThioGlo1 CoA-SH fluorescence; series mostly up to 58.9 µM", "method_in_brief": "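Free CoA generated was detected with ThioGlo1 (50uM) fluorescence at Ex340nm/Em540nm, read immediately and after 20 min at room temperature. Enzyme, 20 nM in HEPES pH 7.5 buffer, saw compounds 15 min before adding 75uM H3(1-25) peptide and 70uM acetyl-CoA.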"}
{"molecule": "CCOc1ccc(CCNC(=O)CCc2nnc3ccc(N4CCOCC4)nn23)cc1", "Potency": "inconclusive: 39.8 µM [inhibitor, single point]"}
{"molecule": "Cc1ccc(NC(=O)CN2C(=O)N/C(=C/c3cc(C)n(-c4ccc(C(=O)O)cc4)c3C)C2=O)cc1", "Potency": "inconclusive: 0.794 µM [inhibitor, full curve, poor fit]"}
{"molecule": "O=C(Nc1ccc(S(=O)(=O)Nc2nccs2)cc1)c1nn(-c2ccccc2)ccc1=O", "Potency": "inconclusive: 22.4 µM [inhibitor, single point]"}
{"molecule": "O=C(CCc1nnc2ccc(NCc3ccco3)nn12)N1CCN(c2ccccc2F)CC1", "Potency": "inconclusive: 20 µM [inhibitor, partial curve, poor fit]"}
{"molecule": "COc1cc(Cl)c(C)cc1NC(=O)CSc1sc2c(O)cc(=O)[nH]c2c1C#N", "Potency": "inconclusive: 8.91 µM [inhibitor, partial curve]"}
{"molecule": "CCN(CC)CCCNC(=O)c1cc2c(-c3cccc(OC)c3)nn(C)c2s1", "Potency": "inconclusive: 25.1 µM [inhibitor, single point]"}
{"molecule": "CN(C(=O)CSc1ccncc1)C1CCCN(Cc2ccccc2F)C1", "note": "(stereo not drawn)", "Potency": "inconclusive: 39.8 µM [inhibitor, single point]"}
{"molecule": "O=S(=O)(Nc1ccccc1F)c1cccc(NC(=S)NCCN2CCOCC2)c1", "Potency": "inconclusive: 20 µM [inhibitor, single point]"}
{"molecule": "O=C(Nc1ccccc1Cl)c1ccc(=O)[nH]n1", "Potency": "inconclusive: 0.316 µM [inhibitor, full curve, poor fit]"}
{"molecule": "O=C(Oc1c(Cl)cc(Cl)c2cccnc12)N1CCOCC1", "Potency": "inconclusive: 28.2 µM [inhibitor, single point]"}
{"molecule": "CCC(=O)NC(=S)NNC(=O)c1ccccc1[N+](=O)[O-]", "Potency": "active: 25.1 µM"}
{"molecule": "C=CCNC(=O)C(=O)NCC(c1ccc2c(c1)OCO2)N1CCN(c2ccc(F)cc2)CC1", "note": "(stereo not drawn)", "Potency": "inactive"}
{"molecule": "CC(=O)c1cccc(NC(=O)CN(C)S(=O)(=O)c2ccc3c(c2)CCC(=O)N3)c1", "Potency": "inconclusive: 8.91 µM [inhibitor, single point]"}
{"molecule": "CCOc1ccc(NC(=O)CSc2nc3cccnc3n2CCOC)cc1", "Potency": "inconclusive: 2 µM [inhibitor, full curve, poor fit]"}
{"molecule": "O=C(CN1C(=O)N/C(=C\\c2ccccc2OCc2ccc(C(=O)O)cc2)C1=O)Nc1ccccc1F", "Potency": "inactive"}
{"molecule": "CCN1CCCC1CNC(=O)c1cc(NC(C)=O)c(N(C)C)cc1OC", "note": "(stereo not drawn)", "Potency": "inconclusive: 39.8 µM [inhibitor, single point]"}
{"molecule": "O=C1/C(=C/c2ccccc2)CCCc2ccccc21", "Potency": "inconclusive: 0.631 µM [inhibitor, single point]"}
{"molecule": "O=C1Nc2ccccc2CCC1Sc1nnc(-c2ccc(Cl)cc2)s1", "note": "(stereo not drawn)", "Potency": "inactive"}
{"molecule": "O=C1c2ccccc2C(=O)N1CCOc1ccccc1Cl", "Potency": "inconclusive: 0.224 µM [inhibitor, full curve]"}
{"molecule": "COc1ccc(CCN2C(=O)/C(=C\\c3ccco3)SC2=S)cc1OC", "Potency": "inconclusive: 39.8 µM [inhibitor, single point]"}
{"molecule": "COc1ccc(-n2c(C)cc(/C=C3\\C(=N)N4N=C(CC(=O)N5CCOCC5)SC4=NC3=O)c2C)c(OC)c1", "Potency": "inconclusive: 15.8 µM [inhibitor, partial curve]"}
{"molecule": "CCOC(=O)C(=CNc1ccc(OC)cc1[N+](=O)[O-])C(=O)OCC", "Potency": "inactive"}
{"molecule": "COc1cc2c(cc1OC)C(c1ccc3c(c1)OCO3)C1=C(CC(C)(C)CC1=O)N2", "note": "(stereo not drawn)", "Potency": "inconclusive: 0.708 µM [inhibitor, single point]"}
{"molecule": "COc1ccc2o/c(=N\\O)c(C(=O)Nc3ccccc3OC)cc2c1", "Potency": "inconclusive: 39.8 µM [inhibitor, single point]"}
{"molecule": "O=C(Nc1cccc(C(F)(F)F)c1)c1cccc(NS(=O)(=O)c2ccc(O)c(C(=O)O)c2)c1", "Potency": "inconclusive: 22.4 µM [inhibitor, partial curve, poor fit]"}
{"molecule": "Cc1cccc(Cn2c(SCc3ccc(C(=O)NC4CCCC4)cc3)nc3ccncc32)c1", "Potency": "inactive"}
{"molecule": "COC(=O)c1[nH]c2cccc(OC)c2c1NC(=O)CN(C)CC1OCCO1", "Potency": "inconclusive: 0.708 µM [inhibitor, single point]"}
{"molecule": "Cc1ccc(S(=O)(=O)N2CCN=C2SC(C)c2ccccc2)cc1", "note": "(stereo not drawn)", "Potency": "inconclusive: 1 µM [inhibitor, full curve, poor fit]"}
{"molecule": "N#CC1=C(SCC(=O)Nc2ccc(C(=O)O)cc2)NC(=O)CC1c1ccco1", "note": "(stereo not drawn)", "Potency": "inconclusive: 6.31 µM [inhibitor, single point]"}
{"molecule": "O=C(CSc1nccn1-c1ncc(C(F)(F)F)cc1Cl)c1ccc(Cl)cc1", "Potency": "inactive"}
{"molecule": "COc1cccc(NC(=O)Cn2c(=O)n(CCCCC(=O)NCc3ccccc3Cl)c(=O)c3ccccc32)c1", "Potency": "inactive"}
{"molecule": "CC(O)CNC(=O)c1ccc(-c2nn(C)c(=O)c3ccccc23)cc1", "note": "(stereo not drawn)", "Potency": "inconclusive: 39.8 µM [inhibitor, single point]"}
{"molecule": "COc1cccc(N2CCN(S(=O)(=O)c3cc4c(cc3C)N(C)CCO4)CC2)c1", "Potency": "inconclusive: 5.01 µM [inhibitor, partial curve, poor fit]"}
{"molecule": "O=C(NNc1cccc(Cl)n1)c1ccc(Cl)cc1Cl", "Potency": "inconclusive: 0.631 µM [inhibitor, single point]"}
{"molecule": "O=C(O)COc1ccccc1/C=C1\\SC(=Nc2ccc(F)cc2)N(c2ccc(F)cc2)C1=O", "Potency": "inconclusive: 39.8 µM [inhibitor, single point]"}
{"molecule": "Cc1nc(N)sc1C(=O)N/N=C/c1c[nH]c2ccccc12", "Potency": "inconclusive: 39.8 µM [inhibitor, single point]"}
{"molecule": "S=c1[nH]nc(Cc2ccc(Cl)cc2)o1", "Potency": "inactive"}
{"molecule": "Cn1c(SCC(=O)NC(c2ccccc2)c2ccccc2)nnc1-c1cccs1", "Potency": "inactive"}
{"molecule": "O=C(O)c1ccc(Cl)cc1Nc1nc2cc(Cl)ccc2o1", "Potency": "inconclusive: 31.6 µM [inhibitor, single point]"}
{"molecule": "COc1ccc(/C=N/N2C(=O)CN(C(=O)c3ccccc3)C2c2ccc(OC)cc2)cc1", "note": "(stereo not drawn)", "Potency": "inactive"}
{"molecule": "O=C(Nc1ccccc1)N(Cc1cccc(Cl)c1)c1ccccn1", "Potency": "inactive"}
{"molecule": "COc1ccccc1/C=C/CN1CCSCC1", "Potency": "inactive"}
{"molecule": "Cn1c(CSCc2ccccc2)nnc1SCC(=O)Nc1ccc(C(=O)O)cc1", "Potency": "inconclusive: 0.447 µM [inhibitor, partial curve, poor fit]"}
